Measured values published in article PMC5376188.
No constants are given. Whether binding was seen depends on the method and setting. Binding seen in cells or lysates may run through a third protein. Some entries that bind do so weakly or less than the wild type.

Protein sequences, listed by entry. Tags and fused reporters are not part of them. Lines headed by an entry give the natural chain unless they say otherwise; changes in a name come on top.
UniProt Q00944: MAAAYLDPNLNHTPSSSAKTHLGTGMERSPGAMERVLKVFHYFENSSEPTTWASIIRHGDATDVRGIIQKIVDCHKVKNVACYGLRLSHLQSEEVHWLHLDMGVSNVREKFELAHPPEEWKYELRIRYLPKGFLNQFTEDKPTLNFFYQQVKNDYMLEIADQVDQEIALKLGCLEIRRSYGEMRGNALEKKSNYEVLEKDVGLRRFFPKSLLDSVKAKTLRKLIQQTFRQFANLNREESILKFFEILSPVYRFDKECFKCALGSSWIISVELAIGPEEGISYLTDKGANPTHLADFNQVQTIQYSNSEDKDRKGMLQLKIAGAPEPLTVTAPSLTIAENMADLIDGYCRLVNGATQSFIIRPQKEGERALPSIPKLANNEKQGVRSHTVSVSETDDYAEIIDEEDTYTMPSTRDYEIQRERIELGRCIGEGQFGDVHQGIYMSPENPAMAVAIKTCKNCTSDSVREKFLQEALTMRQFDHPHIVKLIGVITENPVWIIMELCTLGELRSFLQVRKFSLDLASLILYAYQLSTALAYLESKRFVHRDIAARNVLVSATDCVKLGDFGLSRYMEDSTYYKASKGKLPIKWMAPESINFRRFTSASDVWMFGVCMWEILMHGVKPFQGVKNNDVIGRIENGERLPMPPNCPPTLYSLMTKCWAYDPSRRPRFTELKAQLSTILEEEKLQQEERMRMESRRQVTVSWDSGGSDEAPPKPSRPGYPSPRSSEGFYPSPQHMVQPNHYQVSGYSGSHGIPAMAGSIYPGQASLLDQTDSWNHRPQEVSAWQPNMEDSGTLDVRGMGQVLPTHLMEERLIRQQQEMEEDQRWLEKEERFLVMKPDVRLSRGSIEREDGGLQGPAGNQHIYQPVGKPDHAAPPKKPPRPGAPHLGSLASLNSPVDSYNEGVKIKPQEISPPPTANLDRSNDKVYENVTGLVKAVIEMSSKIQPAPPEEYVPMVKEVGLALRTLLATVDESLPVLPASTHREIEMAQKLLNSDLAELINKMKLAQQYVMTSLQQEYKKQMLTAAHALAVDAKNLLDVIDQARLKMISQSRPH
UniProt O08788: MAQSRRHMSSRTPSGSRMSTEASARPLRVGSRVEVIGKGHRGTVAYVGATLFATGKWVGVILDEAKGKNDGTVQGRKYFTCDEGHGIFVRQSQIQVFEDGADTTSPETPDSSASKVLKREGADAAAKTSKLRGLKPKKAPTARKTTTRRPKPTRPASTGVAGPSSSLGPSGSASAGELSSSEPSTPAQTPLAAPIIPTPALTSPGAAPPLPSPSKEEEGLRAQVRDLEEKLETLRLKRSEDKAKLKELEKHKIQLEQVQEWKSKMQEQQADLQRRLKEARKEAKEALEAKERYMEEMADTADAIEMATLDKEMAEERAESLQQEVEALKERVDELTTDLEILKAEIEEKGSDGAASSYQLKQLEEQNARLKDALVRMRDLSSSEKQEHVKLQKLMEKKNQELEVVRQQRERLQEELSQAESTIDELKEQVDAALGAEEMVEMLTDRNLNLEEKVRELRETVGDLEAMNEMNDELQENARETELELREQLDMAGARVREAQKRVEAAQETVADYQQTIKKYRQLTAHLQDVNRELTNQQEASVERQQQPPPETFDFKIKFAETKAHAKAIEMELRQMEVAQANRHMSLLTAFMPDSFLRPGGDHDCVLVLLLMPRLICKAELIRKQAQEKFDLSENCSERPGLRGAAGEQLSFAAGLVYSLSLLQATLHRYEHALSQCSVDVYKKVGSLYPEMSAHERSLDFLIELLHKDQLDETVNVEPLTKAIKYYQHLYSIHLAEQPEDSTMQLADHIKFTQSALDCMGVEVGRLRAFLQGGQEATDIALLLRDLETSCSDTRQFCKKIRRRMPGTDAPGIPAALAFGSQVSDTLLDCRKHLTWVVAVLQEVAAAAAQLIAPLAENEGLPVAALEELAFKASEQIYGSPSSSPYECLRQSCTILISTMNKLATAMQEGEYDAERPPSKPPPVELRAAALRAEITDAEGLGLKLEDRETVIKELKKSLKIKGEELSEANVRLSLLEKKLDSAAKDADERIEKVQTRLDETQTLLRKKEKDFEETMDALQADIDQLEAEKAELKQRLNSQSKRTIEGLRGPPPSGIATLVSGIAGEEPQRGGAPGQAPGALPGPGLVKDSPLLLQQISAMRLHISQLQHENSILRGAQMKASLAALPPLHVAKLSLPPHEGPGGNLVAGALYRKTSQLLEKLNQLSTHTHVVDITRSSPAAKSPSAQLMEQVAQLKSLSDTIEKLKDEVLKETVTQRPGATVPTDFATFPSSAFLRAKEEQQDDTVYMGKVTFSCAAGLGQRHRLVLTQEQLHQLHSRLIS
UniProt Q9CQW9: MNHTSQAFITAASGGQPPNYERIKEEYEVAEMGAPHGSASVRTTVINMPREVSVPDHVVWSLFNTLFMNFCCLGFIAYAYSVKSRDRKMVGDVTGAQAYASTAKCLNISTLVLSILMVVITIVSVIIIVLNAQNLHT

Legend:
[1] = target: T1, Ambra1 (activating molecule in Beclin1-regulated autophagy) (mouse (endogenous in SCC cells and MEFs)) (UniProt A2AH22); experiment: co-IP; 1 mg lysate (RIPA buffer) of SCC FAK-WT, FAK P875A/P881A or FAK -/- cells, or of Ambra1 +/+ and -/- MEFs, with antibody or antibody-agarose at 4°C overnight; beads washed three times in lysis buffer and once in 0.6 M LiCl; western blot; in some experiments after IFITM3 siRNA
T1 sequence: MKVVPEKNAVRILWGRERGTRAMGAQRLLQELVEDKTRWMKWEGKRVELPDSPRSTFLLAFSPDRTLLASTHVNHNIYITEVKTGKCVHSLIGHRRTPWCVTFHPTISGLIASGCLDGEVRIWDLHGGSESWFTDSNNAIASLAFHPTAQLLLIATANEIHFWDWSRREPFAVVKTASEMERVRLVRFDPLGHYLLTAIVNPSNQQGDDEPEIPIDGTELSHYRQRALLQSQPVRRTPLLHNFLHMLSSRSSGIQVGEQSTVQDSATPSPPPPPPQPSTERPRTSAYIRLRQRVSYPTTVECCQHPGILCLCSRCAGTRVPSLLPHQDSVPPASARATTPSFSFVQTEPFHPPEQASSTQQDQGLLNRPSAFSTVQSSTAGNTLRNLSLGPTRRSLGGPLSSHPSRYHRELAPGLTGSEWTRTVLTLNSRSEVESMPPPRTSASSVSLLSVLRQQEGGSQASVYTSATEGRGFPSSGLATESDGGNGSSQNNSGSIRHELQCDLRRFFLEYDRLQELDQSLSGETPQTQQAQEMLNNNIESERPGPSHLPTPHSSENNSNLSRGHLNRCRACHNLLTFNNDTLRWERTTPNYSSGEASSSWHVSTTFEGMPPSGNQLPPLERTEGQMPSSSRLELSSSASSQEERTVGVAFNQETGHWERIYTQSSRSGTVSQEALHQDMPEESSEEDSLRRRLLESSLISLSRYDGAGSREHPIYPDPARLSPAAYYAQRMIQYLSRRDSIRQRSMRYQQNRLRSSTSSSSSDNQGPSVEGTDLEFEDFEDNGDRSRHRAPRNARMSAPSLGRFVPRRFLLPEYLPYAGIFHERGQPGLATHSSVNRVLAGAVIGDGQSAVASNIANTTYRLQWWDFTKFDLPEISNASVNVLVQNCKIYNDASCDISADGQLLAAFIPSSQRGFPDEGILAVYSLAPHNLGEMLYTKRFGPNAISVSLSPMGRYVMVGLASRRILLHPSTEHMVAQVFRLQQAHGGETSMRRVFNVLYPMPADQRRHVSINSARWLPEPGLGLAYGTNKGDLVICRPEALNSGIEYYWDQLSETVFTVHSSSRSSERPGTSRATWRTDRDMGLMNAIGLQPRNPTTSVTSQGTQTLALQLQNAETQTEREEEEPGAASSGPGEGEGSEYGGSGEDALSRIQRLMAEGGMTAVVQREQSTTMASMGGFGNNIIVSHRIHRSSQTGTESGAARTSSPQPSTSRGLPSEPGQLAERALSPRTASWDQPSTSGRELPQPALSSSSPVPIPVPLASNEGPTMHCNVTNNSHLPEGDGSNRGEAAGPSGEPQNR

[2] = target: focal adhesion kinase (FAK), wild type, in SCC FAK-WT cells (UniProt Q00944); experiment: as above

binding [1] | binding [2] | Substance
binds | – | Dynactin 1 (Dctn1; also known as p150Glued) (from UniProt O08788 1-1281)
binds | – | FAK P875A/P881A (AA) mutant (from UniProt Q00944 1-1053) (enzyme)
binds | – | focal adhesion kinase (FAK), wild type, in SCC FAK-WT cells (from UniProt Q00944 1-1053) (enzyme)
binds | binds | interferon-induced transmembrane protein 3 (IFITM3) (from UniProt Q9CQW9 1-137)
